We go through seven molecules from paper PMC9440387.

Sequences of proteins named here, by UniProt entry; tags and fusion partners are left off. A change or cut given only in a name is not applied to a line headed by its entry.
UniProt P29590: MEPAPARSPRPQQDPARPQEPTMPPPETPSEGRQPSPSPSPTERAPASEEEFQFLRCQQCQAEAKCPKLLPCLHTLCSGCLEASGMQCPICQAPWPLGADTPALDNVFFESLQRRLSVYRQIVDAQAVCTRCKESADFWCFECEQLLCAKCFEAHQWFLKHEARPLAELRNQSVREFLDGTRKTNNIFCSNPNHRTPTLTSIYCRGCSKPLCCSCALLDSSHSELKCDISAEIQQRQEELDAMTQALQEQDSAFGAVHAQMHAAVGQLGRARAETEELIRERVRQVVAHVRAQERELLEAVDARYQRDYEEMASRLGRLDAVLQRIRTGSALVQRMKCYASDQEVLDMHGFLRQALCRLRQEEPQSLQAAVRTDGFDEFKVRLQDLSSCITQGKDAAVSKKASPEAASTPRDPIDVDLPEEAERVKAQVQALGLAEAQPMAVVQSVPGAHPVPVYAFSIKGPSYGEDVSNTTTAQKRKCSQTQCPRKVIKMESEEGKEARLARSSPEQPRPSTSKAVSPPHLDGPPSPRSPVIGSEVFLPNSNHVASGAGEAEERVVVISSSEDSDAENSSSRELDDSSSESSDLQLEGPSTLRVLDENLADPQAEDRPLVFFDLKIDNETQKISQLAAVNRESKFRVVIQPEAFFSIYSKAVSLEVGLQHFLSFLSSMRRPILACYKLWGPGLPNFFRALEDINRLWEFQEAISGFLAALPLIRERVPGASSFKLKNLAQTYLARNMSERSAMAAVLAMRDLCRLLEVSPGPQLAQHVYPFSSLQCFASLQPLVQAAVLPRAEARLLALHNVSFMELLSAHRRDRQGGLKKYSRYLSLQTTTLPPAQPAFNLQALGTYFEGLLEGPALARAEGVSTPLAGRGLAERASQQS
UniProt Q16763: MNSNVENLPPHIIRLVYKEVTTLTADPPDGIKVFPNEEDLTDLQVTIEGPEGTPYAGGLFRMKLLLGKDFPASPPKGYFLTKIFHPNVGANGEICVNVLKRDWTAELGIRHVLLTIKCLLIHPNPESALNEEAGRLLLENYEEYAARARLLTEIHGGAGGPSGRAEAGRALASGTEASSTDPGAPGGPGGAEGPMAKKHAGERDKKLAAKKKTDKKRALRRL
UniProt Q9UJX4: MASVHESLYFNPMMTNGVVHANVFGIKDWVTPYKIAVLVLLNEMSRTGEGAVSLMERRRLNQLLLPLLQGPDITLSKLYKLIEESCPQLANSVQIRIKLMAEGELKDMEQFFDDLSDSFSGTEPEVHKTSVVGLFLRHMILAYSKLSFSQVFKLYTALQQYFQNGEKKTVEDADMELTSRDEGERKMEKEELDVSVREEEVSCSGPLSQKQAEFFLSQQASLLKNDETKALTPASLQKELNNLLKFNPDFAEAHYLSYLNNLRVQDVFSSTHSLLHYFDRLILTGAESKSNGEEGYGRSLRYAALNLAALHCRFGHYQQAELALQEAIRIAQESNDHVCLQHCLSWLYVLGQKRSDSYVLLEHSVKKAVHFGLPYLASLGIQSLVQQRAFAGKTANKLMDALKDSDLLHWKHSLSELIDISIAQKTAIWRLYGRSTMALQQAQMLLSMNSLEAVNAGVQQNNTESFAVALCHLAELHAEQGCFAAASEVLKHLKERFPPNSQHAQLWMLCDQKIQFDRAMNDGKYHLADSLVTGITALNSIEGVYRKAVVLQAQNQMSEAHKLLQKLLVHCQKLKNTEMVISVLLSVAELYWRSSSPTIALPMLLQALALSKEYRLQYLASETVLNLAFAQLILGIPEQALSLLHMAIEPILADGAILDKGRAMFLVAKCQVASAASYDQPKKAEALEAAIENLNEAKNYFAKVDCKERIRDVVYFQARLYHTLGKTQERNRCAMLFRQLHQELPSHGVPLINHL
UniProt Q9UNE7: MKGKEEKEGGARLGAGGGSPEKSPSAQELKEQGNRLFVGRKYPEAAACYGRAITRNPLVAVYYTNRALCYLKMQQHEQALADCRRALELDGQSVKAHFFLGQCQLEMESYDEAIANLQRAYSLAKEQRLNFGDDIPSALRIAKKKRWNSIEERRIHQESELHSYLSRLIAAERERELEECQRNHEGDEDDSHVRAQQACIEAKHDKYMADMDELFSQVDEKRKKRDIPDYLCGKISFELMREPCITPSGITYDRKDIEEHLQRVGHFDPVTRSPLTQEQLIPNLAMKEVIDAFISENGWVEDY

No constants are given. Whether binding was seen depends on the method and setting. Binding seen in cells or lysates may run through a third protein. A yes stands for co-enrichment or nearness to the bait. Other partners may have been found. Tags and fused reporters may be left off the sequences shown.

The experiment addresses T1, F-box/WD40 repeat-containing protein Fbxw24 (mouse), 3xFLAG-tagged, overexpressed in HEK-293T (mouse) (UniProt E9PXM9).
T1 sequence: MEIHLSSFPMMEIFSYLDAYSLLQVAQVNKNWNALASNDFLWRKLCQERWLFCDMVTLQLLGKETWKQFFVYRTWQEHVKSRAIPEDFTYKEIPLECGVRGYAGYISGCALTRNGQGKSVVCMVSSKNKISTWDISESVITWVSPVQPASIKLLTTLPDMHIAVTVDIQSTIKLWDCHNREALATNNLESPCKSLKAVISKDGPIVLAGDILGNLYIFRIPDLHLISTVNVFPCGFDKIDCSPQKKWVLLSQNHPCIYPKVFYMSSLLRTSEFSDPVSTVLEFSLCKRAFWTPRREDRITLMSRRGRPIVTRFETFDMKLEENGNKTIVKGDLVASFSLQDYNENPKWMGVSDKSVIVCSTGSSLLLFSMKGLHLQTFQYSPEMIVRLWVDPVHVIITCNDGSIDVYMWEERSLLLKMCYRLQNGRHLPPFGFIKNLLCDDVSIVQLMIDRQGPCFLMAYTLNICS
The experiment can be described thus: affinity purification with mass spectrometry; SILAC-IP-MS: 3xFLAG-Fbxw24 in HEK-293T (light) against empty vector (heavy, K6R6); 20 uM MG132 for 6 h before collection; lysis in 150 mM NaCl, 20 mM Tris pH 7.5, 2% Triton X-100; anti-FLAG beads, eluted with 3xFLAG peptide; gel bands cut for LC-MS/MS.

On to protein PML (from UniProt P29590 1-882), for which the binding result is given as “binds”. As to “ubiquitin-conjugating enzyme E2S (from UniProt Q16763 1-222)”, the binding entry was “binds”. For the molecule “anaphase-promoting complex subunit 5 (from UniProt Q9UJX4 1-755)”, the binding entry is “binds”. For “STIP1 homology and U box-containing protein 1 (from UniProt Q9UNE7 1-303) (enzyme)”, the binding result is listed as “binds”.

B1: ubiquitin conjugation factor E4A (protein, UniProt Q14139 1-1066)
chain: MTDQENNNNISSNPFAALFGSLADAKQFAAIQKEQLKQQSDELPASPDDSDNSVSESLDEFDYSVAEISRSFRSQQEICEQLNINHMIQRIFLITLDNSDPSLKSGNGIPSRCVYLEEMAVELEDQDWLDMSNVEQALFARLLLQDPGNHLINMTSSTTLNLSADRDAGERHIFCYLYSCFQRAKEEITKVPENLLPFAVQCRNLTVSNTRTVLLTPEIYVDQNIHEQLVDLMLEAIQGAHFEDVTEFLEEVIEALILDEEVRTFPEVMIPVFDILLGRIKDLELCQILLYAYLDILLYFTRQKDMAKVFVEYIQPKDPTNGQMYQKTLLGVILSISCLLKTPGVVENHGYFLNPSRSSPQEIKVQEANIHQFMAQFHEKIYQMLKNLLQLSPETKHCILSWLGNCLHANAGRTKIWANQMPEIFFQMYASDAFFLNLGAALLKLCQPFCKPRSSRLLTFNPTYCALKELNDEERKIKNVHMRGLDKETCLIPAVQEPKFPQNYNLVTENLALTEYTLYLGFHRLHDQMVKINQNLHRLQVAWRDAQQSSSPAADNLREQFERLMTIYLSTKTAMTEPQMLQNCLNLQVSMAVLLVQLAIGNEGSQPIELTFPLPDGYSSLAYVPEFFADNLGDFLIFLRRFADDILETSADSLEHVLHFITIFTGSIERMKNPHLRAKLAEVLEAVMPHLDQTPNPLVSSVFHRKRVFCNFQYAPQLAEALIKVFVDIEFTGDPHQFEQKFNYRRPMYPILRYMWGTDTYRESIKDLADYASKNLEAMNPPLFLRFLNLLMNDAIFLLDEAIQYLSKIKIQQIEKDRGEWDSLTPEARREKEAGLQMFGQLARFHNIMSNETIGTLAFLTSEIKSLFVHPFLAERIISMLNYFLQHLVGPKMGALKVKDFSEFDFKPQQLVSDICTIYLNLGDEENFCATVPKDGRSYSPTLFAQTVRVLKKINKPGNMIMAFSNLAERIKSLADLQQQEEETYADACDEFLDPIMSTLMCDPVVLPSSRVTVDRSTIARHLLSDQTDPFNRSPLTMDQIRPNTELKEKIQRWLAERKQQKEQLE
On to B1, for which the binding result was “binds”.

B2: SUMO-activating enzyme subunit 1 (protein, UniProt Q9UBE0 1-346)
chain: MVEKEEAGGGISEEEAAQYDRQIRLWGLEAQKRLRASRVLLVGLKGLGAEIAKNLILAGVKGLTMLDHEQVTPEDPGAQFLIRTGSVGRNRAEASLERAQNLNPMVDVKVDTEDIEKKPESFFTQFDAVCLTCCSRDVIVKVDQICHKNSIKFFTGDVFGYHGYTFANLGEHEFVEEKTKVAKVSQGVEDGPDTKRAKLDSSETTMVKKKVVFCPVKEALEVDWSSEKAKAALKRTTSDYFLLQVLLKFRTDKGRDPSSDTYEEDSELLLQIRNDVLDSLGISPDLLPEDFVRYCFSEMAPVCAVVGGILAQEIVKALSQRDPPHNNFFFFDGMKGNGIVECLGPK
Turning to B2, the binding entry is reported as “binds”.

B3: SUMO-activating enzyme subunit 2 (protein, UniProt Q9UBT2 1-640)
chain: MALSRGLPRELAEAVAGGRVLVVGAGGIGCELLKNLVLTGFSHIDLIDLDTIDVSNLNRQFLFQKKHVGRSKAQVAKESVLQFYPKANIVAYHDSIMNPDYNVEFFRQFILVMNALDNRAARNHVNRMCLAADVPLIESGTAGYLGQVTTIKKGVTECYECHPKPTQRTFPGCTIRNTPSEPIHCIVWAKYLFNQLFGEEDADQEVSPDRADPEAAWEPTEAEARARASNEDGDIKRISTKEWAKSTGYDPVKLFTKLFKDDIRYLLTMDKLWRKRKPPVPLDWAEVQSQGEETNASDQQNEPQLGLKDQQVLDVKSYARLFSKSIETLRVHLAEKGDGAELIWDKDDPSAMDFVTSAANLRMHIFSMNMKSRFDIKSMAGNIIPAIATTNAVIAGLIVLEGLKILSGKIDQCRTIFLNKQPNPRKKLLVPCALDPPNPNCYVCASKPEVTVRLNVHKVTVLTLQDKIVKEKFAMVAPDVQIEDGKGTILISSEEGETEANNHKKLSEFGIRNGSRLQADDFLQDYTLLINILHSEDLGKDVEFEVVGDAPEKVGPKQAEDAAKSITNGSDDGAQPSTSTAQEQDDVLIVDSDEEDSSNNADVSEEERSRKRKLDEKENLSAKRSRIEQKEELDDVIALD
Consider B3, for which the binding result is reported as “binds”.
